Measurements published in US20130331317A1.
Results are given in words; binding and its absence hold for the method and conditions named. Some entries that bind do so weakly or less than the wild type. Where a sequence is shown, tags or fusion partners need not be part of it.

Amino acid sequences for entries named in this document (tags omitted). A change or cut given only in a name is not applied to a line headed by its entry.
UniProt P11362: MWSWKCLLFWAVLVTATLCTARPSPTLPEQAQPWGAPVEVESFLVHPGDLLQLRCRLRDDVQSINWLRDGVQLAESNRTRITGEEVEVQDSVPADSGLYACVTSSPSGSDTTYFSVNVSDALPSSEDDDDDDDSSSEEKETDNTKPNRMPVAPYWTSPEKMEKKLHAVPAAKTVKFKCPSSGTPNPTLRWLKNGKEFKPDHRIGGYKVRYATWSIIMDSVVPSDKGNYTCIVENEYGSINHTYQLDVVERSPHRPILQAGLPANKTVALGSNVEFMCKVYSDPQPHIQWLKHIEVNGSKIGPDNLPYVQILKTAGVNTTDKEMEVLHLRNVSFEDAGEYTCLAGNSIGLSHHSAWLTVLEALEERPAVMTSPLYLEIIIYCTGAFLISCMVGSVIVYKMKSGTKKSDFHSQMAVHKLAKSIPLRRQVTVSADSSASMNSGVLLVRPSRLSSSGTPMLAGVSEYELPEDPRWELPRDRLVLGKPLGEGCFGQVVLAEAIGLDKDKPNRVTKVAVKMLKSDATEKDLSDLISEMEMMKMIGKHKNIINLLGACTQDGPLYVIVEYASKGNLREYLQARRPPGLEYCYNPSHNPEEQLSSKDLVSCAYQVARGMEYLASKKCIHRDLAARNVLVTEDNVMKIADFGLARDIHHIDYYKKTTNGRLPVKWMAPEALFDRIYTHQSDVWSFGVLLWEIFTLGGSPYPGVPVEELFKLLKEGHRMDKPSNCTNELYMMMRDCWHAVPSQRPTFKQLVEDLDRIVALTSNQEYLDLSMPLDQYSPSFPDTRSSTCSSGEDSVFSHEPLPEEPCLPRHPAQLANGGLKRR

Key:
[1] = target: binary complex of FGFR1c ligand-binding domain with murine βKlotho ectodomain (murine; human) (UniProt P11362); experiment: SPR competition; increasing concentrations of competitor mixed with a fixed concentration of βKlotho-FGFR1c complex, passed over an FGF21 chip
[2] = target: binary complex of FGFR1c ligand-binding domain with murine βKlotho ectodomain (murine; human) (UniProt P11362); experiment: SPR competition; competitor mixed with βKlotho-FGFR1c complex, passed over immobilised FGF21

B1: FGF2^ΔHBScore-FGF21^C-tail chimera (FGF2 M1 to M151 with K128D/R129Q/K134V, fused to FGF21 P168 to S209) (ligand)
chain: MAAGSITTLPALPEDGGSGAFPPGHFKDPKRLYCKNGGFFLRIHPDGRVDGVREKSDPHIKLQLQAEERGVVSIKGVSANRYLAMKEDGRLLASKSVTDECFFFERLESNNYNTYRSRKYTSWYVALDQTGQYVLGSKTGPGQKAILFLPMPGLPPALPEPPGILAPQPPDVGSSDPLSMVGPSQGRSPSYAS
With B1 the binding [1] was “binds” and the binding [2] was “binds”.
